# Reference: patent publication US20240075027A1, “REPOSITIONING THE ANTI-LEPROSY DRUG CLOFAZIMINE AGAINST DRUG-RESISTANT MYELOMA AND PUTATIVE STEM-CELL SUBCLONES” (Auburn University, priority 2022, published 2024)
# System: HMCLs
# Assay: Gene expression profiling (RNA-seq), untreated vs treated
# Format: cell-based, human
# Details: for number of differentially regulated genes: |fold-change|>2 (p<0.05)
compound,measurement,setting,value
"CC(C)/N=c1\cc2n(-c3ccc(Cl)cc3)c3ccccc3nc-2cc1Nc1ccc(Cl)cc1 [CLF, clofazimine]",number of differentially expressed genes vs CON,"5 μM CLF, 24 hours, p<0.05, |fold-change|>1",172 genes
same,number of differentially regulated genes,FLAM76,426 genes
same,number of differentially regulated genes,JIM3,128 genes
same,number of differentially regulated genes,LP1,10 genes
same,number of differentially regulated genes,RPMI8226,714 genes
same,number of differentially regulated genes,U266,33 genes
